These are yes or no findings as the source states them, for the method shown. For some of these results: In cells and extracts the contact can be indirect. Some results given as binding are weak or reduced against the parent protein; the word gives no strength.
Key:
[1] = molecular target: ATM (ataxia-telangiectasia mutated) kinase (mouse (endogenous in cerebellar tissue)) (UniProt Q62388); test: condition: only with ethyl pyruvate, a scavenger of hydrogen peroxide; non-reducing SDS-PAGE and immunoblot; as a1, glargine together with ethyl pyruvate (scavenger of H2O2)
[2] = molecular target: HIF1α (mouse (endogenous in cerebellar tissue)) (UniProt Q61221); test: co-IP; cerebellar tissue of Atm-WT mice after daily glargine (50 Unit/kg) for 4 weeks; whole cell and subcellular fractionated lysates, immunoblot
[3] = molecular target: HIF1α (mouse (endogenous in cerebellar tissue)) (UniProt Q61221); test: condition: only co-treatment with TEPP-46 (50 mg/kg body weight, daily, 4 weeks); co-IP; as a6, Atm-WT mice given glargine together with TEPP-46 (50 mg/kg, daily, 4 weeks)
[4] = molecular target: importin-α3 (mouse (endogenous in cerebellar tissue)) (UniProt O35343); test: co-IP; ex vivo mouse cerebellar culture, Atm-WT, with or without 100 nM glargine for 2 h; 1 mg lysate (RIPA), precleared with control IgG, Dynabeads Protein G, overnight at 4 °C, immunoblot

Chains of the proteins cited; added tags and fusions are not shown. Lines headed by an entry give the natural chain unless they say otherwise; changes in a name come on top.
UniProt Q62388: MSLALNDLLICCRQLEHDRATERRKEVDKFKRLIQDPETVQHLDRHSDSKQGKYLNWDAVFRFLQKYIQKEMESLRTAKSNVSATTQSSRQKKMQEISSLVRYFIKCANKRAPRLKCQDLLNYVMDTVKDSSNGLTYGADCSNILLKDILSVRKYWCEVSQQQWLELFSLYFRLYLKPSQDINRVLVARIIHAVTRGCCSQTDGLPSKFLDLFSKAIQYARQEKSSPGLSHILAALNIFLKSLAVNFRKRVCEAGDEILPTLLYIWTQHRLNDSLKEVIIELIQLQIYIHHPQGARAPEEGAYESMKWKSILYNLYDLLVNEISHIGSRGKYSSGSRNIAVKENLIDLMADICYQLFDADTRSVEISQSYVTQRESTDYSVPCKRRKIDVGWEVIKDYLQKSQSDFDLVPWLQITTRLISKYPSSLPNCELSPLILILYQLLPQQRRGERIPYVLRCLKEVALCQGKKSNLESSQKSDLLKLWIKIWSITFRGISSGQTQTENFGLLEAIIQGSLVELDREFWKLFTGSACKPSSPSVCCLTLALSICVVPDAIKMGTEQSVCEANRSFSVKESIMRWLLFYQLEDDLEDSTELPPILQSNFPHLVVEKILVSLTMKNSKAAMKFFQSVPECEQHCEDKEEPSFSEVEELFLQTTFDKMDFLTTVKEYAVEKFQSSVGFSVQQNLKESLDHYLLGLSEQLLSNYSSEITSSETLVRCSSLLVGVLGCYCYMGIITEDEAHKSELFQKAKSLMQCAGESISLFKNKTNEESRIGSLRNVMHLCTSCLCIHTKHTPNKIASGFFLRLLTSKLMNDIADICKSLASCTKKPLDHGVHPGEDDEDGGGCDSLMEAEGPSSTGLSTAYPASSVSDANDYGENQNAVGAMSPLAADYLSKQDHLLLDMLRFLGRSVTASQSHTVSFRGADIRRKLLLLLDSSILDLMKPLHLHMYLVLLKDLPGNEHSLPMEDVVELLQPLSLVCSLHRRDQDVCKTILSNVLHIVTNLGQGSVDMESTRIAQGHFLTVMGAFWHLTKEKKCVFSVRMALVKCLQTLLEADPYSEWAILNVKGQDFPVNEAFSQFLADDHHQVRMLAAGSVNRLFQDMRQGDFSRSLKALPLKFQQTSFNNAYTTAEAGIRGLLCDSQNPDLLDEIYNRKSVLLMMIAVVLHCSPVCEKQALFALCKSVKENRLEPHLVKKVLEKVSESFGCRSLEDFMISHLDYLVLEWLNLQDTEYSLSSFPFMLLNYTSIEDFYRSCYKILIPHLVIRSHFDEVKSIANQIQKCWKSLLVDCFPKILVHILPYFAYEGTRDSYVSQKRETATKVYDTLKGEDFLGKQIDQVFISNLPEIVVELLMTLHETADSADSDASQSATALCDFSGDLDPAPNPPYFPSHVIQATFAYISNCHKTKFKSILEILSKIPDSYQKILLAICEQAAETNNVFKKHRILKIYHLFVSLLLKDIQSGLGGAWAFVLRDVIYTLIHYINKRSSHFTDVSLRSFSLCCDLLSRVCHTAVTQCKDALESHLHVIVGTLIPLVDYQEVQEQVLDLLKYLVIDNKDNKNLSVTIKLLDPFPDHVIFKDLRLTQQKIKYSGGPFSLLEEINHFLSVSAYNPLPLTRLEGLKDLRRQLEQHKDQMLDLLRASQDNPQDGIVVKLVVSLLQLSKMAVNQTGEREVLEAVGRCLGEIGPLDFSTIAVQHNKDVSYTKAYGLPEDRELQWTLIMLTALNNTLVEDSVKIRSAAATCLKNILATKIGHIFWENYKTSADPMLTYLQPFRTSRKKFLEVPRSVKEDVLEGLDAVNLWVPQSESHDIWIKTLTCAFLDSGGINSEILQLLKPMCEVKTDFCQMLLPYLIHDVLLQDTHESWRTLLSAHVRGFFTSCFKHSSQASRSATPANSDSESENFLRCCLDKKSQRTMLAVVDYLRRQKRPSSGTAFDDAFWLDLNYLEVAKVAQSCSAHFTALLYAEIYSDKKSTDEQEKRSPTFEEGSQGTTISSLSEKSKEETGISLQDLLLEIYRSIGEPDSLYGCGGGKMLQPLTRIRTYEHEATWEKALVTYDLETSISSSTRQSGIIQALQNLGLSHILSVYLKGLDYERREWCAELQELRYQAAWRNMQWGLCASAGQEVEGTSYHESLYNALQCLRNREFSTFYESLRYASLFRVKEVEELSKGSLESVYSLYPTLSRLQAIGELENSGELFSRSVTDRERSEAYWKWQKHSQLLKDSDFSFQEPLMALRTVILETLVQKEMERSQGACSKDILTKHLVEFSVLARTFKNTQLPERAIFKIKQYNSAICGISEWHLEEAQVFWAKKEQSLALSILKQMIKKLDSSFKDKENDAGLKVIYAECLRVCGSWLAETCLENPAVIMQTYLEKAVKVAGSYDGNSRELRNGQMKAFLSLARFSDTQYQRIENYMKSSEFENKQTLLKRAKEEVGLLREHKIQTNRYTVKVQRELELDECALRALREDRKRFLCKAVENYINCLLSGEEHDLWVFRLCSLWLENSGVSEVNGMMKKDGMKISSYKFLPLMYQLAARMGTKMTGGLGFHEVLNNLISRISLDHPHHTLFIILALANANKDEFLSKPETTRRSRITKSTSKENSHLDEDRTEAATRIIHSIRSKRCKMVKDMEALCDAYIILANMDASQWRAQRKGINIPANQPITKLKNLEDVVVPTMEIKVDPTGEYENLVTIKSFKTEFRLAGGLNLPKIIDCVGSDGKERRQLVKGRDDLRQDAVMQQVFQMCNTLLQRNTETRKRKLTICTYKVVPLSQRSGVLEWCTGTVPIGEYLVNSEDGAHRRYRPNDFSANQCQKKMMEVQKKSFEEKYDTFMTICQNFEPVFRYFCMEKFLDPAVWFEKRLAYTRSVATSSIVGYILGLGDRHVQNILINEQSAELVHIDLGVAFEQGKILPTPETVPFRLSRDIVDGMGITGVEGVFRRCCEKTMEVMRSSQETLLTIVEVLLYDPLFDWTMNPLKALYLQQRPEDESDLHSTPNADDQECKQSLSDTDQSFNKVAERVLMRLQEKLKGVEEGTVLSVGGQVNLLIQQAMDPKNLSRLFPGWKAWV
UniProt Q61221: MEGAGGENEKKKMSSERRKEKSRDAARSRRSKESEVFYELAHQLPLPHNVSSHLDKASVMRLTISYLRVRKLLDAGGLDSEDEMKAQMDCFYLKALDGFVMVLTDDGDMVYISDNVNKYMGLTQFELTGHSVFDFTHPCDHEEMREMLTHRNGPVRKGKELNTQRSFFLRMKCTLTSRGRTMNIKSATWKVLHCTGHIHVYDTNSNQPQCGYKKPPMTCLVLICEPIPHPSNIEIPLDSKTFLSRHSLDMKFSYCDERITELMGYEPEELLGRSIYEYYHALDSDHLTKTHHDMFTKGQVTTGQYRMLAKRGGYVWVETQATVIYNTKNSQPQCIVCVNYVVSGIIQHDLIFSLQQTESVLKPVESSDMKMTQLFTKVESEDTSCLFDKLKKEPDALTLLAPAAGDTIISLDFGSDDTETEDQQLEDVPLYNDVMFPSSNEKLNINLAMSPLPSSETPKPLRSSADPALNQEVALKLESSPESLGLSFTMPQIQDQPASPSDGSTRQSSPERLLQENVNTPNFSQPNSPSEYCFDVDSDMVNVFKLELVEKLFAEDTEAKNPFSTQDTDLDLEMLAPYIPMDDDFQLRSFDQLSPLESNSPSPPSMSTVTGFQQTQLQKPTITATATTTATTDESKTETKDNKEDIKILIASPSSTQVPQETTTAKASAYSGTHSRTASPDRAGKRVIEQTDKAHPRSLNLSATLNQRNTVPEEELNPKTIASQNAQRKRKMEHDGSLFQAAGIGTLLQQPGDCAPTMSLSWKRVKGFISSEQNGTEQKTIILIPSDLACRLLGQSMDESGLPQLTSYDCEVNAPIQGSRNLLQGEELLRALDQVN
UniProt O35343: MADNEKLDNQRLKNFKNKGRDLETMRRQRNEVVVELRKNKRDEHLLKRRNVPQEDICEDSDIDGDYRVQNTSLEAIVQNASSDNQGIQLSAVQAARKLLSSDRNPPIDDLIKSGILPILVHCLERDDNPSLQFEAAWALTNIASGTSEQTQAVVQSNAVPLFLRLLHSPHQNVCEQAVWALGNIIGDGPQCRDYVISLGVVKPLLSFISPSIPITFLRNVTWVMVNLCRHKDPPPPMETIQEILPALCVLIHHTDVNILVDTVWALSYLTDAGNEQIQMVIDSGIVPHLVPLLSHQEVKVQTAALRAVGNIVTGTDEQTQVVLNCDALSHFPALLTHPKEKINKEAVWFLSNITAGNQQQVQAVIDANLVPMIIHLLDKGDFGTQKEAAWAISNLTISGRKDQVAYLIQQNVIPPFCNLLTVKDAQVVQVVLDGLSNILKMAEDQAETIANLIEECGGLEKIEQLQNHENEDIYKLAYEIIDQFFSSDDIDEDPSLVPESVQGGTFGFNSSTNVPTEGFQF
UniProt P52480: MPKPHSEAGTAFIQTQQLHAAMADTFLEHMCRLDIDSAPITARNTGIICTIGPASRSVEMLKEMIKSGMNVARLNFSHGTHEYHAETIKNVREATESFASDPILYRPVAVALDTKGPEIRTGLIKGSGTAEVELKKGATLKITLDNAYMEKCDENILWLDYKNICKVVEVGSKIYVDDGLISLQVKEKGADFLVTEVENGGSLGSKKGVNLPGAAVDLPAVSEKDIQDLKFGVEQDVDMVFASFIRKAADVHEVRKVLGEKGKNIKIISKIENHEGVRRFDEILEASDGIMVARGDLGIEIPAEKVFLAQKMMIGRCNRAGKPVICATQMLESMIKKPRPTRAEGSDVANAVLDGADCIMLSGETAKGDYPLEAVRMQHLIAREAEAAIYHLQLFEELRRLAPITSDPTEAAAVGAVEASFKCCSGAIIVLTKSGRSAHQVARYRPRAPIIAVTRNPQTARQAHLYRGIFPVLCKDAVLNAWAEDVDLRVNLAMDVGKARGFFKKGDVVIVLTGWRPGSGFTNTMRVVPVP

Row | binding [2] | binding [3] | binding [4] | Substance | binding [1]
1 |  |  |  | ATM (ataxia-telangiectasia mutated) kinase (from UniProt Q62388 1-3066) (enzyme) | no binding
2 | binds | no binding | binds | PKM2 (pyruvate kinase M2) (from UniProt P52480 1-531) (enzyme) | 

— publication PMC12540671
